Assay results reported in PubChem BioAssay AID1508600 (Functional Genomics Laboratory (NCATS/FGL), 2020).
Hit rate of the full screen: of about 53,000 sequences, about 3,700 (7%) were called active.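 How the source made its calls: active means gene knockdowns whose robust z-score for IL-1 alpha signal is at least 2 or at most -2, so actives lie on both sides; inactive means the rest.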 The list shows a part of the results.

Experiment: Components of the Cytosolic LPS Sensing Pathway: Gene Identification via Genome-wide siRNA Screen;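 further: robust z of the log signal after scaling to non-targeting control siRNA wells of the plate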
Details: RAW264.7 macrophages, IL-1a HTRF, actives lie on both sides, screened at 100 nM (by protocol), cells primed 5 h with Pam3CSK4 first
Outline: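 Cells (RAW264.7, 1×10^4 per well) were transfected with siRNA at 100 nM and cultured 48h at 37 degrees C. Pam3CSK4 was added for 5 hours; LipidA transfection followed for 24 hour. IL-1a was then measured by HTRF.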

Row | Sequence | z-score
1 | GCAACAAGUUUGAUACCGATT against Chic1 | inactive: 0.0162
2 | GGGUUUCUGACCCUUGGUUTT against Vmn1r220 | inactive: -1.42
3 | GGAUGAAAUUAACUCUGAATT against Parp1 | inactive: -0.533
4 | CGUAGGAGAACAAACAUCCTT against Tmc7 | inactive: -0.158
5 | GGAAGUCCACAAAUGAAGGTT against Ric1 | inactive: 1.77
6 | GGGAAACCAUCGAUUUGAATT against Bmp5 | inactive: -1.35
7 | GGAAGUUCCACCAUACCUCTT against Cypt4 | active: -2.5
8 | GGUAAAAUAUGGUCUCUUCTT against Clrn3 | inactive: -0.282
9 | GGAGAUCCUAAUCAUGUCATT against Kcmf1 | inactive: 0.612
10 | GGGAGAGGAAGAAAAUAAATT against Ccz1 | inactive: 0.476
11 | GGAAUACCAUGUUACAAUUTT against Reln | inactive: 0.816
12 | GGCAUUCAGGAAGUUACUGTT against Krt75 | inactive: -1.63
13 | GCCAAUACACGUCUACUGATT against Gm1553 | inactive: -0.0632
14 | GGUCAAUUGUCCAUAUGACTT against Tox3 | active: -2.24
15 | GCAUAUACUCCAAAAGUCATT against Cldn8 | inactive: -0.634
16 | GGUACACCCAGACAAGAACTT against 4930503B20Rik | inactive: -0.397
17 | GGAGAAAUAGAUUCAGUGATT against Cep170 | inactive: -0.839
18 | GGAAUGUUCCGAUUAUUUATT against Slc9b1 | inactive: 1.03
19 | GGGAGACCUGCUACUAUUGTT against Gtf3c2 | active: 2.58
20 | GCUGGCUGUUUCACUACAGTT against Tdh | active: 3.19
21 | GGGACUUACAGAUUACAGUTT against Izumo1 | inactive: 0.416
22 | GGGAGGAACAAGUUGGACCTT against Npl | inactive: -0.841
23 | GGUCUUACGUAAACCUGCCTT against Olfr959 | inactive: -1.54

Row | Sequence | z-score
24 | CCACUGGCUACCACAUGUUTT against Cyb5d2 | inactive: -0.0983
25 | GGGAGUCUGUAGAAGGUUCTT against Samd14 | inactive: 0.577
26 | GCUAAGUGGAGUUUAUGCUTT against Agpat5 | inactive: 0.0451
27 | GCAUAAGAAGAAACACCUUTT against Usp17lf | inactive: 1.42
28 | GGCUUUAAAGGGAAUGCCCTT against Uba3 | inactive: -0.886
29 | GGUUAUUCUGGUACAGGUUTT against Fndc3a | inactive: 0.191
30 | CGGUGGUCACUGUGAAAUGTT against Nr1h5 | inactive: 0.0152
31 | GCCUUUUAGGACAGACUCUTT against AU040320 | inactive: -0.75
32 | GGAUCCAAGCAUUAUAGUGTT against Smg5 | inactive: 0.908
33 | CCAUAAAUGAGUCUUCAUUTT against Bnip5 | inactive: -0.0535
34 | CCACUUUUAGCUAGAAGGATT against Gdf2 | inactive: 0.0775
35 | GGUGUUCCAUAUUCUGGACTT against Pvalb | inactive: 0.886
36 | GGGCUCCUGGUUUAGUAAUTT against Zfp59 | inactive: 1.04
37 | GCAGCCAUACAGCUUAUAUTT against Cyb561d2 | inactive: 0.382
38 | GGCAGAAACGUGGACUAAATT against Mmp12 | inactive: -1.29
39 | GGUCCUGAAGAACCUGUACTT against Myrip | inactive: -0.0103
40 | GGACAUCAGUUAUCACGCATT against Sh3rf2 | inactive: -0.404
41 | UUCAAAUAAACUCUCUGCUTT against Krtap31-2 | inactive: 0.802
42 | CCUCACUGUGGUAACAUUATT against Olfr452 | inactive: 1.84
43 | GGAAUUCACAGAAAUAAUGTT against Hmgcs2 | inactive: 0.101
44 | GUAUCGUUUGAGCAGAUCCTT against Cib1 | inactive: -0.669
45 | GGAUAUCCGUGAGAUUUCATT against Timm9 | active: 3.7
46 | CCCUAGUGAUAAGGAAUGCTT against Cxcl9 | inactive: 0.228

Row | Sequence | z-score
47 | CCAAAUCGUCGCCAUUAAGTT against Cdk7 | inactive: -0.445
48 | GGUAUUAGCAAUUUUCUGGTT against Olfr619 | inactive: -0.681
49 | CUCGUUAAUCCUGUGAUAUTT against Olfr740 | inactive: 1.74
50 | GCCAACCUCUGUGUGUAUUTT against Olfr1263 | inactive: 0.799
51 | GGUUCACCUACCCAACAAUTT against Mrgpra4 | inactive: -1.89
52 | GCAGGUUUACCAGUUUUUCTT against Prickle3 | inactive: 1.88
53 | GCAAGAGAAAUCCACGACUTT against Ncoa1 | inactive: -0.0778
54 | CCUGAUAGAAAAUCUCGACTT against Pld1 | inactive: -0.537
55 | GGAUCUCUAUGCUAACAACTT against Acta2 | inactive: 1.83
56 | GGAAGAGGAAGAAAAAAAGTT against Iqcf4 | inactive: -0.411
57 | CCUGUAACCUUGCUUAAUGTT against Hoxc6 | inactive: 0.0208
58 | GCACCUAGAUUGAUUGCAGTT against Olfr1186 | inactive: -1.79
59 | GGAAGGUAUGGUACGAUGUTT against Rock1 | inactive: -0.455
60 | GGAAGGCUAUACACACCUUTT against Crisp1 | inactive: 1.13
61 | GCUGCUCAAACAUAAUGAATT against Osbpl2 | inactive: -0.419
62 | CCUUGGACCCGAUGUUCUUTT against Slc22a12 | inactive: 0.548
63 | GGAGAAAUUCAAACAAGUATT against 4930503B20Rik | inactive: 0.275
64 | GGCUCAAGUUUGCCAGGAATT against Kcnq2 | inactive: -0.473
65 | GCUACAAACAAAAGUGGCCTT against Sass6 | inactive: -0.717
66 | CCUGUCUCCAAUUUUCCUGTT against Olfr1254 | inactive: -1.13
67 | GGUGUGUUUUGUAUUGAUUTT against Olfr843 | inactive: 0.482
68 | CCUGUGUAUUCCUAAAUUGTT against Wdr41 | inactive: -0.718

Entries 57 to 61 from above:
Row | Sequence | z-score
57 | CCUGUAACCUUGCUUAAUGTT against Hoxc6 | inactive: 0.0208
58 | GCACCUAGAUUGAUUGCAGTT against Olfr1186 | inactive: -1.79
59 | GGAAGGUAUGGUACGAUGUTT against Rock1 | inactive: -0.455
60 | GGAAGGCUAUACACACCUUTT against Crisp1 | inactive: 1.13
61 | GCUGCUCAAACAUAAUGAATT against Osbpl2 | inactive: -0.419
